The results in this text go back to US20190374627A1, “TARGET PEPTIDES FOR CANCER THERAPY AND DIAGNOSTICS” (priority 2016, published 2019).

Entries after “also recorded” stand apart in the source; their conditions may differ.

For one series, the system named is colorectal cancer. In words: Presence of the phosphopeptide in previously analyzed colorectal cancer samples. Details: key: The presence of phosphopeptides in previously analyzed samples including leukemia, colorectal cancer, melanoma, ovarian cancer, breast cancer, and esophageal cancer is indicated by ✓.
The next series has as its system leukemia. Put plainly: Presence of the phosphopeptide in previously analyzed leukemia samples. More on the design: key: The presence of phosphopeptides in previously analyzed samples including leukemia, colorectal cancer, melanoma, ovarian cancer, breast cancer, and esophageal cancer is indicated by ✓.
A further series concerns melanoma. In words: Presence of the phosphopeptide in previously analyzed melanoma samples. More on the design: key: The presence of phosphopeptides in previously analyzed samples including leukemia, colorectal cancer, melanoma, ovarian cancer, breast cancer, and esophageal cancer is indicated by ✓.
Series [1] deals with HCC tumor tissue, adjacent liver tissue, HepG2 cells. Put plainly: Identification of MHC class I-bound phosphopeptides by W6/32 immunoprecipitation, IMAC and HPLC-ESI-MS/MS. More on the design: species or system human. As to conditions: for Found on other cancers: other malignancies on which the MHC-I-pP was also identified; for Copies/cell: presentation of HCC-associated HLA-A*0201-restricted MHC-I-pP per cell; for Found on: sample (HCC tumor T, adjacent liver N, HepG2) on which the phosphopeptide was identified.

Consider “169 (RPRSAVLL; (4)...(4) The amino acid at this position is optionally phosphorylated; listed as Homo sapiens) [compound 169]”, for which the Colorectal entry in the series on colorectal cancer is reported as “✓”. For the same substance, the Leukemia entry in the series with leukemia is on record as “✓”. In addition, in the series with melanoma, the Melanoma result is recorded as “✓”.

With “197 (RPVTPVSDL; (4)...(4) The amino acid at this position is optionally phosphorylated; listed as Homo sapiens) [compound 197]”, in the series with colorectal cancer, the Colorectal entry is recorded as “✓”. Further, the Leukemia result in the series with leukemia is “✓”. Besides, the Melanoma result with melanoma was “✓”.

For the substance “208 (SPKSPGLKA; (4)...(4) The amino acid at this position is optionally phosphorylated; listed as Homo sapiens) [compound 208]”, the Colorectal result with colorectal cancer is listed as “✓”. Besides, the Leukemia result in the series with leukemia is “✓”. Further, the Melanoma result in the series on melanoma is “✓”.

Take “213 (SPRSPSTTYL; (6)...(6) The amino acid at this position is optionally phosphorylated; listed as Homo sapiens) [compound 213]”: in the series with colorectal cancer, the Colorectal entry is “✓”. Moreover, the Leukemia result in the series on leukemia is reported as “✓”. For the same substance, the Melanoma entry in the series on melanoma was “✓”.

As to “239 (KRLSPAPQL; (4)...(4) The amino acid at this position is optionally phosphorylated; listed as Homo sapiens) [compound 239]”, in the series on colorectal cancer, the Colorectal entry is recorded as “✓”. Further, the Leukemia result in the series with leukemia is “✓”. Moreover, the Melanoma entry with melanoma was “✓”.

“279 (RRSSQSWSL; (4)...(4) The amino acid at this position is optionally phosphorylated; listed as Homo sapiens) [compound 279]”: the Colorectal result in the series with colorectal cancer is “✓”. In addition, the Leukemia result with leukemia was “✓”. In addition, the Melanoma entry in the series on melanoma was “✓”.

Turning to “304 (IYQYIQSRF; (4)...(4) The amino acid at this position is optionally phosphorylated; listed as Homo sapiens) [compound 304]”, the Colorectal result in the series with colorectal cancer was “✓”. Besides, in the series on leukemia, the Leukemia result is listed as “✓”. Also, the Melanoma entry with melanoma is listed as “✓”.

For “315 (RAKSPISLK; (4)...(4) The amino acid at this position is optionally phosphorylated; listed as Homo sapiens) [compound 315]”, in the series with colorectal cancer, the Colorectal entry is “✓”. In the series on leukemia, the Leukemia entry is given as “✓”. The Melanoma entry in the series on melanoma was “✓”.

With “316 (RILSGVVTK; (4)...(4) The amino acid at this position is optionally phosphorylated; listed as Homo sapiens) [compound 316]”, the Colorectal entry in the series on colorectal cancer is recorded as “✓”. Moreover, the Leukemia result in the series with leukemia is “✓”. Further, the Melanoma entry with melanoma is “✓”.

“322 (RLSSPISKR; (4)...(4) The amino acid at this position is optionally phosphorylated; listed as Homo sapiens) [compound 322]”: the Colorectal result with colorectal cancer is recorded as “✓”. The Leukemia entry in the series on leukemia was “✓”. Also, the Melanoma result in the series on melanoma is given as “✓”.

On to “334 (RVYSPYNHR; (4)...(4) The amino acid at this position is optionally phosphorylated; listed as Homo sapiens) [compound 334]”, for which, in the series with colorectal cancer, the Colorectal entry is listed as “✓”. For the same substance, the Leukemia result with leukemia was “✓”. In addition, the Melanoma entry in the series on melanoma is on record as “✓”.

For the substance “339 (AENSPTRQQF; (4)...(4) The amino acid at this position is optionally phosphorylated; listed as Homo sapiens) [compound 339]”, the Colorectal entry in the series with colorectal cancer is on record as “✓”. Moreover, the Leukemia result with leukemia was “✓”. Further, in the series with melanoma, the Melanoma result is listed as “✓”.

Consider “ALDsGASLLHL: RIPK4 phosphopeptide, HLA-A*0201 (ALDSGASLLHL; phosphoserine; (4)...(4) The amino acid at this position is optionally phosphorylated; listed as Homo sapiens)”, for which, in series [1], the “Found on other cancers” value is listed as “Ovarian Ca, Hematological Ca, Breast” and the Copies/cell is recorded as 0.1 - 0.4 Copies/cell.

“AVVsPPALHNA: BRD4 phosphopeptide, HLA-A*0201 (AVVSPPALHNA; phosphoserine; (5)...(5) The amino acid at this position is optionally phosphorylated; listed as Homo sapiens)”: in series [1], the “Found on other cancers” value is reported as “Ovarian Ca, Hematological Ca”; the Copies/cell is 0.5 - 0.7 Copies/cell; the Found on result was “LL981; also recorded: HepG2”.

In the case of “FLDtPIAKV: NKD1 phosphopeptide, HLA-A*0201 (FLDTPIAKV; phosphothreonine; (4)...(4) The amino acid at this position is optionally phosphorylated; listed as Homo sapiens)”, in series [1], the “Found on other cancers” value is on record as “CRC” and the Copies/cell is on record as 0.1 - 0.15 Copies/cell.

As to “GLLDsPTSI: ZFP36L1 phosphopeptide, HLA-A*0201 (GLLDSPTSI; phosphoserine; (5)...(5) The amino acid at this position is optionally phosphorylated; listed as Homo sapiens)”, the Found on result in series [1] is “LL370T”.

Take “GRsSPPPGY (GRSSPPPGY; phosphoserine; (3)...(3) The amino acid at this position is optionally phosphorylated; listed as Homo sapiens)”: the Found on entry in series [1] is “LL981T”.

In the case of “ITQGtPLKY: NCOR2 phosphopeptide, HLA-A*01 (ITQGTPLKY; phosphothreonine; (5)...(5) The amino acid at this position is optionally phosphorylated; listed as Homo sapiens)”, the Found on entry in series [1] was “LL981T”.

Turning to “KAFsPVRSV: ID2 phosphopeptide, HLA-A*0201 (KAFSPVRSV; phosphoserine; (4)...(4) The amino acid at this position is optionally phosphorylated; listed as Homo sapiens)”, in series [1], the “Found on other cancers” value is recorded as “Ovarian Ca, CRC, OEAC” and the Copies/cell is given as 0.1 - 81 Copies/cell.

As to “KLFPDtPLAL: ILF3 phosphopeptide, HLA-A*0201 (KLFPDTPLAL; phosphothreonine; (6)...(6) The amino acid at this position is optionally phosphorylated; listed as Homo sapiens)”, in series [1], the “Found on other cancers” value was “Ovarian Ca, CRC, Melanoma,” and the Copies/cell is reported as 0.1 - 0.3 Copies/cell.

Consider “KLPsPAPARK (KLPSPAPARK; phosphoserine; (4)...(4) The amino acid at this position is optionally phosphorylated; listed as Homo sapiens)”, for which the Found on entry in series [1] was “LL4857N + T”.

In the case of “KRYsGNmEY: MHC-I-pP identified for serine/threonine protein kinases LATS1 and LATS2 (KRYSGNMEY; phosphoserine; oxidized methionine; (4)...(4) The amino acid at this position is optionally phosphorylated; listed as Homo sapiens)”, the Found on result in series [1] was “LL3907T; also recorded: LL370T; also recorded: LL981T; also recorded: LL4857T”.

For “KRYsRALYL (KRYSRALYL; phosphoserine; (4)...(4) The amino acid at this position is optionally phosphorylated; listed as Homo sapiens)”, the Found on entry in series [1] is “LL370T”.

“LLDPSRSYsY: GAREM1 phosphopeptide, HLA-A*01 (LLDPSRSYSY; phosphoserine; (9)...(9) The amino acid at this position is optionally phosphorylated; listed as Homo sapiens)”: the Found on result in series [1] is “LL981T”.

In series [1], “PmVTLsLNL (PMVTLSLNL; phosphoserine; oxidized methionine; (6)...(6) The amino acid at this position is optionally phosphorylated; listed as Homo sapiens)” registered a Copies/cell of 6 Copies/cell.

Regarding “REAPsPLmI (REAPSPLMI; phosphoserine; oxidized methionine; (5)...(5) The amino acid at this position is optionally phosphorylated; listed as Homo sapiens)”, the Found on entry in series [1] is “LL3907T”.

“REVsPAPAV (REVSPAPAV; phosphoserine; (4)...(4) The amino acid at this position is optionally phosphorylated; listed as Homo sapiens)”: in series [1], the Found on result is “LL3907T”.

As for “REYGsTSSI (REYGSTSSI; phosphoserine; (5)...(5) The amino acid at this position is optionally phosphorylated; listed as Homo sapiens)”, the Found on entry in series [1] was “LL3907T”.

In the case of “RLAsYLDRV: KRT18 phosphopeptide, HLA-A*0201 (RLASYLDRV; phosphoserine; (4)...(4) The amino acid at this position is optionally phosphorylated; listed as Homo sapiens)”, in series [1], the “Found on other cancers” value is recorded as “CRC” and the Copies/cell is reported as 0.4 - 1.8 Copies/cell.

On to “RLFsKELRC: TAF13 phosphopeptide, HLA-A*0201 (RLFSKELRC; phosphoserine; (4)...(4) The amino acid at this position is optionally phosphorylated; listed as Homo sapiens)”, for which, in series [1], the “Found on other cancers” value is listed as “Ovarian Ca, Melanoma” and the Copies/cell is 0.3 Copies/cell.
